Experimental data: PubChem BioAssay AID1259424 (University of Nebraska Medical Center, 2018)

Test: 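Find knockdowns that reproduce the expression shifts seen after KSR1 loss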 (primary screen)
Cells: human HCT116 colon cancer cells
Reagent: siRNA pool against human genes, 50 nM
Measured: 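Log2 levels of six mRNAs (branched-DNA multiplex), adjusted by two reference genes and the non-targeting median, then scored against the average KSR1 knockdown pattern as Pearson r and euclidean distance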
Scale: mean correlation with KSR1 profile: higher = expression change more like KSR1 knockdown
This is one part, drawn at random, of about 14,000 deposited reagents. 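Higher correlation or smaller distance means closer resemblance to KSR1 loss; control wells, including KSR1 knockdowns, recur on many plates.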 Not all columns of the deposit are shown. The record does not give: the time to read-out.

TMEM245 | mean correlation with KSR1 profile = -0.376
VNN1 | mean correlation with KSR1 profile = -0.702
DSCR8 | mean correlation with KSR1 profile = 0.498
ADH1B | mean correlation with KSR1 profile = -0.366
TTYH1 | mean correlation with KSR1 profile = 0.142
CCR10 | mean correlation with KSR1 profile = 0.0364
DPP10 | mean correlation with KSR1 profile = -0.446

Ordered by “mean correlation with KSR1 profile” (low to high): 2 of the entries above.
ADH1B | mean correlation with KSR1 profile = -0.366
DSCR8 | mean correlation with KSR1 profile = 0.498

The list goes on:
OR1E2 | mean correlation with KSR1 profile = 0.938
BCL2L13 | mean correlation with KSR1 profile = -0.223
ARMC5 | mean correlation with KSR1 profile = -0.168
CCN4 | mean correlation with KSR1 profile = 0.432
CPA3 | mean correlation with KSR1 profile = 0.0182
CEP192 | mean correlation with KSR1 profile = -0.882
CCDC106 | mean correlation with KSR1 profile = -0.349
KIFAP3 | mean correlation with KSR1 profile = 0.387
NOX1 | mean correlation with KSR1 profile = -0.029
KRI1 | mean correlation with KSR1 profile = -0.33
USP39 | mean correlation with KSR1 profile = -0.455
WDR76 | mean correlation with KSR1 profile = -0.453
